Article PMC9379584 (iScience, 2022)
Where two headings read alike, the source gives them in different places.

System: mouse pancreatic islets
Assay: Glucose-stimulated insulin secretion
Format: cell-based
Details: Pancreatic islet

Structure (SMILES): CCCN1CCC[C@@H]2Cc3n[nH]cc3C[C@H]21 [Quinpirole, quinpirole]
- IC50 (1.5 h, read-out: IC50, inhibition of GSIS): 1.59 µM
- IC50 (1.5 h, read-out: pIC50, inhibition of GSIS (converted)): 1.58 µM
- IC50 (read-out: IC50, inhibition of GSIS): 1.6 µM
